Test results from PubChem BioAssay AID504444 (National Center for Advancing Translational Sciences (NCATS), 2011).
Out of some 360,000 compounds screened, about 7,500 (2.1%) were called active. Inconclusive results, whose numbers are uncertain, are shown with a selection of clear calls. Calls follow the shape of the dose curve; as a rule, active = well fitted inhibition curve with a large enough effect; inconclusive = small, poorly fitted or top-dose-only effect, or effect the other way; inactive = flat fitted curve, though single readings scatter. A potency beside an inconclusive call is a rough fit, not a confirmed value.

Assay: Nrf2 qHTS screen for inhibitors; also: nearly all actives have a fitted effect of over 60% in size
Settings: A549 ARE-Fluc reporter, luciferase luminescence, 18-24 h; series mostly up to 46 µM
Procedure, shortened: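 Nrf2 activity is the BugLite luminescence, read 15 min after reagent at room temperature, following CellTiter-Fluor cytotoxicity readout (30 min, 37C). Compound titrations were applied for 18-24 h to 5000 A549 ARE_Fluc cells/well in 5% FBS OPTI-MEM.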
Potency is read from the fitted curve at half-maximal effect.

Structure (SMILES) | Potency
CCc1cccc(C)c1NC(=O)CN1C(=O)C2(SCC(=O)N2c2cccc(F)c2)c2ccccc21 (configuration not stated) | inactive
CC12CCC(C(=O)Nc3nc4ccccc4s3)(OC1=O)C2(C)C (configuration not stated) | inconclusive: 8.2 µM [activator, partial curve]
O=C(COC(=O)c1c2c(nc3ccccc13)/C(=C\c1ccco1)CC2)NC1CCCC1 | inconclusive: 9.2 µM [activator, partial curve, poor fit]
CCOc1ccc(CN(C)C(=O)CNC(=O)C2CCCCC2)cc1 | inconclusive: 9.2 µM [falling, partial curve, poor fit]
Nc1c(N2CCOCC2)cc(Cl)c2nonc12 | inactive
O=c1c2ccccc2sc2ccc(C#CC3(O)CCCCC3)cc12 | active: 20.6 µM
COc1ccc(CCNC(=O)NS(=O)(=O)c2ccc(C)cc2)cc1OC | inconclusive: 6.51 µM [activator, partial curve, poor fit]
CC(=O)N1CCc2cc(Br)cc(S(=O)(=O)N3CCC(C(=O)Nc4ccc(C(C)C)cc4)CC3)c21 | inconclusive: 13 µM [falling, partial curve]
Cc1nn(-c2ccc(NC(=O)c3ccncc3)cc2)c(C)c1Cl | active: 3.66 µM
COc1ccc(C(=O)CC2(O)C(=O)N(Cc3cccc(C(F)(F)F)c3)c3ccccc32)cc1 (configuration not stated) | inconclusive: 16.4 µM [falling, single point]
CCCCOC(=O)Cn1c2ccc(OC)cc2c2nc3ccccc3nc21 | inconclusive: 25.9 µM [falling, partial curve, poor fit]
C=CCn1cccc(C(=O)Nc2ccc(Cl)cc2)c1=O | inconclusive: 4.61 µM [activator, single point]
O=C1CCCN1C(=O)CSc1ncnc2sccc12 | inconclusive: 25.9 µM [activator, single point]
CC(NC(=O)COC(=O)Cc1ccsc1)C1CC2CCC1C2 (configuration not stated) | inactive
CC(=O)N1CCN(c2ccc(NCc3ccc(Br)o3)cc2)CC1 | inconclusive: 9.2 µM [falling, partial curve]
Cc1ccc(CN2CCc3c(OCc4ccc(F)cc4)cccc3C2=O)cc1 | inconclusive: 20.6 µM [falling, partial curve, poor fit]
CCc1ccc(/C=N/NC(=O)c2cc(-c3ccccc3OC)nc3ccccc23)s1 | inactive
C/C(=N\NC(=O)C1CC1)c1ccc(Cl)cc1 | inconclusive: 20.6 µM [activator, single point]
O=C(Nc1ccccc1)Nc1cnccn1 | inactive
CC(C(=O)Nc1ccc(OC(F)(F)F)cc1)N1Cc2ccccc2C1=O (configuration not stated) | inactive
C[C@H](CO)N1C[C@H](C)[C@@H](CN(C)Cc2ccc(Oc3ccccc3)cc2)Oc2c(NC(=O)c3ccncc3)cccc2C1=O | inconclusive: 23.1 µM [falling, single point]

2 records drawn at random from the list so far, as already listed:
Structure (SMILES) | Potency
CC(=O)N1CCc2cc(Br)cc(S(=O)(=O)N3CCC(C(=O)Nc4ccc(C(C)C)cc4)CC3)c21 | inconclusive: 13 µM [falling, partial curve]
Cc1ccc(CN2CCc3c(OCc4ccc(F)cc4)cccc3C2=O)cc1 | inconclusive: 20.6 µM [falling, partial curve, poor fit]

Continued:

Structure (SMILES) | Potency
COc1ccccc1NC(=O)CCSc1nc(C)cc(C)n1 | inconclusive: 5.17 µM [falling, partial curve]
O=C(c1ccc(S(=O)(=O)N2CCCC2)cc1)N1CCN(c2cccc(Cl)c2)CC1 | inconclusive: 32.6 µM [falling, single point]
O=S(=O)(c1ccc2ccccc2c1)N1CCN(C(=S)Nc2ccc(F)cc2)CC1 | inconclusive: 29.1 µM [falling, single point]
C(=NOCc1ccccc1)c1cccnc1 | inconclusive: 4.11 µM [activator, single point]
Cc1ccc(CNC(=O)Cc2csc3ccccc23)cc1 | inconclusive: 13 µM [activator, partial curve]
Cc1c(Cl)cccc1-n1ncc(C(=O)NC2CCCCC2)c1C1CCN(C(=O)OC(C)(C)C)CC1 | inconclusive: 29.1 µM [falling, single point]
Cc1cc(NCCO)c2cc(O)ccc2n1 | inactive
CCNc1nc(NCC)n2c(SCC(=O)N(CC)C3CCCCC3)nnc2n1 | inconclusive: 8.2 µM [falling, partial curve, poor fit]
O=C(O)c1ccc(Nc2nc(-c3ccccc3)c3ccccc3n2)cc1 | inconclusive: 3.26 µM [falling, partial curve, poor fit]
COc1cccc(NC(=O)/C=C/c2ccc(S(=O)(=O)N3CCOCC3)cc2)c1 | inconclusive: 29.1 µM [falling, single point]
COc1ccccc1-c1nc(C(=O)NCC2CCCO2)cc2c1[nH]c1ccccc12 (configuration not stated) | inconclusive: 20.6 µM [falling, partial curve, poor fit]
Cc1nnc(NC(=O)C2COc3ccccc3O2)s1 (configuration not stated) | inconclusive: 8.2 µM [activator, partial curve, poor fit]
CCn1ccnc1CNC(=O)C1CCC(=O)N(Cc2ccccc2F)C1 (configuration not stated) | inconclusive: 25.9 µM [activator, single point]
COc1ccc(OC)c(Nc2sc(C(=O)c3ccccc3)c(N)c2S(=O)(=O)c2ccccc2)c1 | inactive
Cc1c(CC(C)C)nc(N)c(C#N)c1-c1ccccc1 | inconclusive: 32.6 µM [falling, single point]
O=C(O)c1ccc(N/N=C/c2cn(Cc3ccc(F)cc3)c3ccccc23)cc1 | inconclusive: 8.2 µM [activator, partial curve]
CC(C)(C)c1ccc(Oc2coc3cc(OCC(=O)O)ccc3c2=O)cc1 | inconclusive: 13 µM [falling, partial curve, poor fit]
C[C@H](NC(=O)c1nc[nH]c1C(=O)NCCCCCNC(=O)OC(C)(C)C)C(=O)OC(C)(C)C | inconclusive: 18.4 µM [falling, partial curve]
Cc1ccc(OCc2ccc(C(=O)Nc3c(C)nn(Cc4c(F)c(F)c(F)c(F)c4F)c3C)o2)c([N+](=O)[O-])c1 | active: 8.2 µM
Cc1ccccc1NC(=O)Cn1c(=O)n(CCc2ccccc2)c(=O)c2ccccc21 | inactive
CCn1cc(C(=O)NCc2cccc(F)c2)c(=O)c2cc(F)c(N3CCN(C(=O)c4ccco4)CC3)cc21 | inconclusive: 29.1 µM [falling, single point]
